Laboratory results reported in PubChem BioAssay AID1347423 (Functional Genomics Laboratory (NCATS/FGL), 2020).
Hit rate of the full screen: of about 52,000 sequences, about 210 (0.4%) were called active.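 Rule for the calls: active = gene whose silencing raises cell survival under the drug, median off-target-corrected z-score across its silencing RNAs 2 or more; inactive = the rest.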 Some of the results follow.

assay: Resistance to Poly (ADP-Ribose) Polymerase inhibitor: Gene Identification via Genome-wide siRNA Screen; conditions: mouse BRCA2 R2336H ES cells, olaparib, CellTiter-Glo viability; active compounds read high
In short: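 Genome-wide siRNA screen (3 siRNAs/gene, 20 nM) in mouse ES cells carrying hypomorphic BRCA2 R2336H; olaparib 500 nM added 48 h post-transfection, CellTiter-Glo viability 72 h later. Normalized to plate-median negative control; MAD z-scores, gene median, seed-adjusted.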

Sequence | z-score
GGACUGAAGCUUACUUUCUTT against E230011A21Rik | inactive: -2.1
GCUAUCUCUGCUAAUAAAGTT against Col6a1 | inactive: 1.05
GGAAGAAAAGUCUCAGAAATT against 1200016B10Rik | inactive: 0.8
GCCUCAUUUGAUCAAUGUCTT against Actr2 | inactive: 0.802
GGCCGUAUGUGAAUUUGAATT against Tnfaip6 | inactive: -0.201
GGCUUAAAAUGUUAGUGAATT against 1110014F12Rik | inactive: 1.37
GGAAAAAAGUUCAUCGUGGTT against Kcnma3 | inactive: 0.385
GGCCGUUAUGUUUUACAAGTT against 1810055D05Rik | inactive: 0.396
GGCUUAAGGGAAUAUUUUCTT against Tmem14a | inactive: 0.488
GCUUUAUUAACCCAUCAAATT against BC028975 | inactive: 1.87
GGCCUAAAUUGACAAACUUTT against Mgea5 | inactive: 0.366
GGUAUUAUGAUCAGAUUUGTT against Pdcd6ip | inactive: 0.326
CCAUGACAAUGAAUAUCCUTT against 1700025F22Rik | inactive: 1.21
GGUUGUCAAGGCUGCUCAUTT against MGI:1915703 | inactive: -1.17
GGAAAUACUAUGUUUGACUTT against Gja5 | inactive: 0.449
AGGAAUCCUCUAAAUGACCTT against V1rd22 | inactive: -1.55
GGAAAACAAGUGGAAAGGGTT against C130071C03Rik | inactive: -0.121
GGGUGAUAAUGAGUCUACCTT against Pja1 | inactive: 0.794
GGACAAUACGGAGAAAGAUTT against Kdt1 | inactive: -1.46
GGAAAAAGAAUUGAGAGCUTT against Dhx15 | inactive: 0.633
GCAACAAGCCUAGCUAAUCTT against A630038E17Rik | inactive: 0.751
GGCAAUUCAUUGCAUGUUATT against Cdc42ep3 | inactive: 0.422
GGAACUCUCAGAUCUGAUUTT against Ppl | inactive: -0.382
GGUGAUAGUACUGUCAGCCTT against Olfr1225 | inactive: 0.0798
GGGACCAGAGGAAACAGAATT against Tnfsf13b | inactive: -1.57
GGCUUUCGUGUUUUCAGUUTT against 4921524J17Rik | inactive: -0.618

Sequence | z-score
GCACCUGAAGACUAAUGUUTT against Gcnt2 | inactive: -0.566
GGCCAAAAAUUUCAUCUCUTT against Itgae | inactive: 0.132
CCAAAACAACCACAAGUAGTT against A930006D11 | inactive: -2.39
CCAUGACACUCAUUCCCAGTT against Tbc1d7 | inactive: 0.258
GCCCAAAUUGGGUUCAUCATT against Pde9a | inactive: -1.25
GCGCACCGUCAAAGUGAAATT against Atp5o | inactive: -1.08
GGAACAACCACGGAACCCATT against Il1r2 | inactive: -0.502
CGAGAUUGUGGAUAGCUUUTT against Eif4a1 | inactive: -1.53
GGCUAUGGCUUUUGUAUGUTT against 2610034B18Rik | inactive: 0.307
GGAGUUUUGAAUAAACCAATT against Tmc7 | inactive: -2.15
CGACUUCGUCAUAAGAAUATT against Map3k6 | inactive: 0.322
GGUUGAUGAAGCUAAUUUATT against Ube2l3 | inactive: -0.039
GGAUUCAGGCUGGAAAAUATT against Ush3a | inactive: -1.84
GGUGAAGCUGCUGAGAAAGTT against Angptl1 | inactive: 0.0785
GGCUGCAUCUAUAACAUAATT against Olfr611 | inactive: -0.352
CGCAUUACAAUUCAUCAUCTT against Rnf170 | inactive: -0.759
GGUCCUAGAGAAUCUCCAGTT against Tst | inactive: -2.54
CCAAGUAACAGUUUAGUAGTT against Nme5 | inactive: 1.13
GCUUAAUCGAACCAGAGUGTT against 2610524H06Rik | inactive: 0.477
GGGAAAUGCACUUAAAUGATT against Tnrc9 | inactive: 0.242
GUCACGAGAUUCAAGAUGUTT against Svs7 | inactive: 0.0855
GAGGUCAUUCCACGACGGUTT against Prpmp5 | inactive: 1.26
GGAAGUGGUCCACCUGAUCTT against Mms19l | inactive: -0.759
CCUUAAAAGUAACCACUGUTT against Slc6a6 | inactive: -0.21
GCUGGAGACUACUACGUGCTT against Bex2 | inactive: -0.0658
GACCACAAUAUUGAGGAUCTT against BC031441 | inactive: -0.136

Sequence | z-score
GGUGACUGAAAUCAAACACTT against Il9r | inactive: 0.769
CGAAUCCAUGAUAUUGUACTT against Dncl2b | inactive: -1.24
GGCCAUUAAAAACACGGUATT against A130022J15Rik | inactive: -1.07
GGUGCUGGAGAUGAAGAACTT against C130038G02Rik | inactive: -2.16
GGACUCAACUGGACAGCCUTT against E330037G11Rik | inactive: -0.741
GGCAAUCAGAUCAUUUACATT against BC047207 | inactive: 0.581
GGCCUUUCUAAAUUCAACATT against Top3a | inactive: 2.67
GACGCAGAAAUGGUUUAAGTT against Hod | inactive: 0.425
GGUAGCAAUCAUUUUCCUUTT against 4933415L06Rik | inactive: 0.184
GGACUGACUGGAUUUUUCCTT against Adamts12 | inactive: -0.264
GGUGAACGAACAUUGGUAUTT against Sh3d4 | inactive: -0.736
CGAGGAAUAACAACAGCCUTT against Itk | inactive: -1.55
GGCUGAUUCAUUUGGGAACTT against Olfr9 | inactive: -1.56
GGGAGCAACAAUGUAAACATT against Pex13 | inactive: -0.0363
GCUGUUAGCCUAGUUUGUUTT against Gm1568 | inactive: 0.253
GGUAAUGUCCUUAUCAUCUTT against Olfr211 | inactive: -0.139
GGUACACAUGACAUUCAUGTT against Gcdh | inactive: 0.613
GCUCGUUCGCCUAGAAUUGTT against Mycbp | inactive: 1.07
GGGUUUUUGGGAGAGCCAATT against Tbxas1 | inactive: -2.95
GGACAAGUUAGAGGAAUUUTT against Phf13 | inactive: -0.905
GCUUUGUUGCGUCAACAAATT against Sdccag8 | inactive: 1.03
GGUUACGAAUUACCUAGACTT against Plat | inactive: -0.275
GGAGAUUGAUUUCAAUGCCTT against Olfr665 | inactive: -0.0692
CCUCCUCUCCUAAAUGCCUTT against 1700034O15Rik | inactive: 0.0352
GGACCUCACAAGUGUUUAUTT against Pola1 | inactive: -0.152
GCCUUAGGUUCGGAUGACCTT against Rorb | inactive: 1.14

An excerpt of these results, in CSV form:
Sequence,z-score
GGACUGACUGGAUUUUUCCTT against Adamts12,inactive: -0.264
GGUGAACGAACAUUGGUAUTT against Sh3d4,inactive: -0.736
CGAGGAAUAACAACAGCCUTT against Itk,inactive: -1.55

Random excerpt: five records from the list
Sequence | z-score
GCUUUGUUGCGUCAACAAATT against Sdccag8 | inactive: 1.03
GGUAGCAAUCAUUUUCCUUTT against 4933415L06Rik | inactive: 0.184
GGUUACGAAUUACCUAGACTT against Plat | inactive: -0.275
CGAGGAAUAACAACAGCCUTT against Itk | inactive: -1.55
GCCUUAGGUUCGGAUGACCTT against Rorb | inactive: 1.14

Remaining list, next part

Sequence | z-score
GGUGAUUUGUAAGACAGCUTT against Dpyd | inactive: 1.32
GCGGUAACAUCACCAAAAUTT against Gltp | inactive: -0.645
CCGUGGUCUACUCCAUCAUTT against Slc6a19 | inactive: -1.72
GCGAAAGAUGGAAGACGACTT against Gtf3c1 | inactive: -1.88
GGAAAGUUAAUGCACAUUUTT against Hmg20a | inactive: -1.08
CCAGUUCCGGUCAGAUUAUTT against Gnal | inactive: -1.1
GGUUUCGUACCAUGAAACATT against Epim | inactive: -0.711
GCAAAGGUUCUAGUUGAUATT against Cct2 | inactive: -2.51
CGGCACCAGUGUUCUAUUGTT against Ddi2 | inactive: -0.359
GCUCAACGCAUUUUUCCAUTT against Neurod2 | inactive: 1.21
CGUAGAGCUCAGAGAAUUCTT against D11Lgp2e | inactive: 1.63
GGAUUCUUUCCCUUUGUGCTT against BC038613 | inactive: 0.459
GGACUGGAAGAAUUUUUUGTT against Mrpl47 | inactive: 1.99
GCUCAUGUAUGUGAAUUUGTT against Ptx3 | inactive: 0.366
GGUGACUCUGAUUCUCAUATT against Slc22a13 | inactive: 0.608
GGCUUAGAAUCAGACUUGUTT against Tor3a | inactive: 1.33
GGCUAUCAGUUUCAAUGAGTT against Olfr663 | inactive: 0.0513
GGUGAGGUAGGUUACUCAGTT against Reps1 | inactive: -2.75
GGCCUACGACAAAUCCAAATT against Csrp2 | inactive: 2.51
GGCAGCUGUUCAUCAUUACTT against 1110001K21Rik | inactive: 0.522
GGAACGGCUGAUCACUCUGTT against Otop1 | inactive: 0.783
GGCCUACUACAUUUUGUCATT against 2700050L05Rik | inactive: 0.924
GGUAACACAGAAGAAAUCUTT against Hig1 | inactive: 2.62
CCUAAAGACGUGCAAUAUGTT against Zfp287 | inactive: 1.53
GGAAUGUUACCCUUCAACUTT against Slc25a13 | inactive: 0.238
GCAGAUUGAUUAUACGGUATT against 2310036D22Rik | inactive: -1.65
